Results on one substance are retold here after PMC8885739.

The chains behind the UniProt entries cited, without tags or fusion partners. Where a name states a change or a piece, a line headed by the entry shows the natural chain unless it says otherwise.
UniProt Q8C5Y2: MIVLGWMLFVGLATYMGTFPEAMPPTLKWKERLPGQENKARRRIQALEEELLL
UniProt P21796: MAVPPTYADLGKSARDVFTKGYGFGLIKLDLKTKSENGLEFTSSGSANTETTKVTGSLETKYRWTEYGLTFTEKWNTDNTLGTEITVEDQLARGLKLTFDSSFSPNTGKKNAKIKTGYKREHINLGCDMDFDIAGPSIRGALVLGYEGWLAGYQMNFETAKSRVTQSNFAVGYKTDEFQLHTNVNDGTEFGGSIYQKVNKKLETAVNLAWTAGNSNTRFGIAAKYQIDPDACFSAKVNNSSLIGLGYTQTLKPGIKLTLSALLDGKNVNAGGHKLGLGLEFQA

These are yes or no findings as the source states them, for the method shown. Binding seen in cells or lysates may run through a third protein. Binding can be weak; no strength is given.

The target in the assay is Kastor-(C)FLAG (mouse) (UniProt Q8C5Y2). The assay is described as follows: co-IP; lysates of HEK293T cells transiently expressing Kastor-(C)FLAG or Polluks-(C)FLAG; immunoprecipitation with anti-FLAG M2 affinity gel, washes with 0.1% Triton X-100, elution with FLAG peptide; immunoblot for VDAC isoforms.

Consider “VDAC1 (voltage-dependent anion channel 1), endogenous in HEK293T cells (from UniProt P21796 1-283)”, for which the binding entry is reported as “binds”.
